No constants are given. Whether binding was seen depends on the method and setting. Some binding calls cover weakened binding; strength is not graded here.
Molecular target: T1, OSM specific receptor (oncostatin M receptor) on human WI-26 VA4 cells (human) (UniProt Q99650)
T1 sequence (looked up): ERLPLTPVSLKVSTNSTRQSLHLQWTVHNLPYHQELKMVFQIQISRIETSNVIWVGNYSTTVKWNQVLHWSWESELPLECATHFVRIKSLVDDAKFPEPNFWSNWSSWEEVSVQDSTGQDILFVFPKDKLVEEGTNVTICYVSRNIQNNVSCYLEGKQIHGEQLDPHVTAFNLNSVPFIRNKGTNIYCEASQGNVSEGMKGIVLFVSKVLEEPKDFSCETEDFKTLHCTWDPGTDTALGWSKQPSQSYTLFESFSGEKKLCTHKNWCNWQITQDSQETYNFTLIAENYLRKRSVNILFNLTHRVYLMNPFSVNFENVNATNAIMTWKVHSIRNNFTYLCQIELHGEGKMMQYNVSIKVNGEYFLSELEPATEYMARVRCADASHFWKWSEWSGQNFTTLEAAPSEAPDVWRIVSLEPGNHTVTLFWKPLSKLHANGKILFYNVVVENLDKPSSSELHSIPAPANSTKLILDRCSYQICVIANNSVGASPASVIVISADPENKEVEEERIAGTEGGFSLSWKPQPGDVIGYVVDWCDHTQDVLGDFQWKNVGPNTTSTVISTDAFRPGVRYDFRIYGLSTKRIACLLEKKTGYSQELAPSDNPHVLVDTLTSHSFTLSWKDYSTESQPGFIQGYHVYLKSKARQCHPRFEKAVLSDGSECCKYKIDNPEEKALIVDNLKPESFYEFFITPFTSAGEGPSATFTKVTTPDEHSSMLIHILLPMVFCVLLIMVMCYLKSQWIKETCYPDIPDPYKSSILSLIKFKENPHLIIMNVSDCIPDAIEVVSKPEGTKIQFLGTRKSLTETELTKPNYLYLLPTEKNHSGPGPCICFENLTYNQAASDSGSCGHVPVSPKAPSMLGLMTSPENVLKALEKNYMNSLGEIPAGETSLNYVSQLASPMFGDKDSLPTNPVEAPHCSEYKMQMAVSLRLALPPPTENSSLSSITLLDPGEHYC
Experiment: 125I-human OSM binding to WI-26 VA4 cells

- binding: binds
B1: Human OSM (oncostatin M) (ligand, UniProt P13725 26-221, looked up)
chain: AAIGSCSKEYRVLLGQLQKQTDLMQDTSRLLDPYIRIQGLDVPKLREHCRERPGAFPSEETLRGLGRRGFLQTLNATLGCVLHRLADLEQRLPKAQDLERSGLNIEDLEKLQMARPNILGLRNNIYCMAQLLDNSDTAEPTKAGRGASQPPTPTPASDAFQRKLEGCRFLHGYHRFMHSVGRVFSKWGESPNRSRR
modifications: 125I-iodinated (labeled ligand)

Reference: patent US20040006018A1
